Measurements: patent US20210380632 (published 2021)
Square brackets hold non-standard residues; d marks the D form. * marks the point of attachment. Met(O) = CS(=O)CC[C@H](N)C(=O)O; ClZ = O=C(OCc1ccccc1Cl)*; Boc = CC(C)(C)OC(=O)*; OBn = c1ccc(CO*)cc1; Bn = c1ccc(C*)cc1

Assay: general procedure: solution-phase peptide synthesis; EDC hydrochloride with HOBt.H2O or HOOBt

## Boc-His(BOM)-Gly-Glu(OBzl)-Gly-Thr(Bzl)-Phe-Thr(Bzl)-Ser(Bzl)-Asp(OBzl)-Leu-O(4-NBn)
Coupling step
  crude purity (method not given): 93.5%

## Boc-S(Bn)K(ClZ)Q[Met(O)]E(OBn)E(OBn)-OH
Late stage modification step
  crude purity (method not given): 94.6%

## Boc-Glu(OBzl)-Ala-Val-Arg(Z)2-Leu-OH
Late stage modification step
  crude purity (method not given): 96.5%
